# Measured values published in patent US11884647B2, “Compounds and methods for targeting pathogenic blood vessels” (THE REGENTS OF THE UNIVERSITY OF CALIFORNIA, priority 2019, dated 2024).
# At least one read-out could not be matched to a standard name with certainty.
# Columns and labels:
# [1] = tested on: tumor endothelial cells (CT26.CL25 colon cancer tumor); experiment: Colon CT26 ex vivo model of tumor angiogenesis; assay type: cell-based, mouse
# Procedure, shortened: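 Explant pieces of CT26 tumor (about 0.075 mm^3) were embedded in Matrigel and grown in endothelial growth medium at 37 °C for about 7 days until endothelial outgrowth appeared, then treated. Cell death was read about 48 h after drug addition by fluorescein diacetate (live) and propidium iodide (dead) staining with red/green imaging.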
# [2] = tested on: tumor endothelial cells (LL/2 lung cancer tumor); experiment: Lung LL2 ex vivo model of tumor angiogenesis; assay type: cell-based, mouse
# Procedure, shortened: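 Mouse LL2 tumor fragments (~0.5×0.5×0.3 mm) embedded in Matrigel and grown in endothelial growth medium at 37° C until endothelial outgrowth (about 4 days) before drug treatment. About 48 h after drug addition, stained 10 min with fluorescein diacetate/propidium iodide; live (green) and dead (red) cells imaged at 2× with fixed channel settings.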
SMILES,48 hrs (morphology observations after 48 hours) ([1]; Conc. 40 μm),48 hrs (morphology observations after 48 hours) ([2]; Conc. 40 μm),48 hrs (morphology observations after 48 hours) ([1]; Conc. 10 μm),48 hrs (morphology observations after 48 hours) ([2]; Conc. 20 μm),48 hrs (morphology observations after 48 hours) ([1]; Conc. 20 μm)
"CCc1ccc(S(=O)(=O)c2cnc3ccc(OC(F)(F)F)cc3c2N2CCC(CO)CC2)cc1 [compound 48, (1-(3-((4-ethylphenyl)sulfonyl)-6-(trifluoromethoxy)quinolin-4-yl)piperidin-4-yl)methanol]",0,** (more than 50% but less than 100% of endothelial cells vesicularize in cell shape),,,
"CCc1ccc(S(=O)(=O)c2cnc3ccc([N+](=O)[O-])cc3c2N2CCC(O)CC2)cc1 [compound 75, 1-(3-((4-ethylphenyl)sulfonyl)-6-nitroquinolin-4-yl)piperidin-4-ol]",0,** (more than 50% but less than 100% of endothelial cells vesicularize in cell shape),,,
"CCCCOc1ccc(S(=O)(=O)c2cnc3ccc(C(=O)NC(C)C)cc3c2N2CCCN(C)CC2)cc1 [compound 192, 3-((4-butoxyphenyl)sulfonyl)-N-isopropyl-4-(4-methyl-1,4-diazepan-1-yl)quinoline-6-carboxamide]",0,*** (100% of endothelial cells vesicularize in cell shape),,,
"CCc1ccc(S(=O)(=O)c2cnc3ccc([N+](=O)[O-])cc3c2N2CCC(N3CCCCC3)CC2)cc1 [compound 77, 4-([1,4′-bipiperidin]-1′-yl)-3-((4-ethylphenyl)sulfonyl)-6-nitroquinoline]",0,** (more than 50% but less than 100% of endothelial cells vesicularize in cell shape),,,
"CCOC(=O)c1ccc2ncc(S(=O)(=O)c3ccc(CC)cc3)c(NN3CCN(C)CC3)c2c1 [compound 84, ethyl 3-((4-ethylphenyl)sulfonyl)-4-((4-methylpiperazin-1-yl)amino)quinoline-6-carboxylate]",* (50% or less of cells vesicularize in cell shape),** (more than 50% but less than 100% of endothelial cells vesicularize in cell shape),,,
"COc1ccc(S(=O)(=O)c2cnc3ccc(OC(F)(F)F)cc3c2N2CCC(N3CCCCC3)CC2)cc1OC [compound 56, 4-([1,4′-bipiperidin]-1′-yl)-3-((3,4-dimethoxyphenyl)sulfonyl)-6-(trifluoromethoxy)quinoline]",0,* (50% or less of cells vesicularize in cell shape),,,
"CCCN(CCC)c1c(S(=O)(=O)c2ccc(OC)c(OC)c2)cnc2ccc(OC(F)(F)F)cc12 [compound 71, 3-((3,4-dimethoxyphenyl)sulfonyl)-N,N-dipropyl-6-(trifluoromethoxy)quinolin-4-amine]",0,* (50% or less of cells vesicularize in cell shape),,,
"CCCCCCCOc1ccc(S(=O)(=O)c2cnc3ccc([S+](C)[O-])cc3c2N2CCC(N3CCN(C)CC3)CC2)cc1 (centres unmarked) [compound 253, 3-((4-(heptyloxy)phenyl)sulfonyl)-4-(4-(4-methylpiperazin-1-yl)piperidin-1-yl)-6-(methylsulfinyl)quinoline]",,,*** (100% of endothelial cells vesicularize in cell shape),**** (100% of endothelial cells vesicularize in cell shape and look flattened in morphology (indicating disintegration of the cell body)),
"CCc1ccc(S(=O)(=O)c2cnc3ccc(CC#N)cc3c2N2CCC(N3CCCCC3)CC2)cc1 [compound 55, 2-(4-([1,4′-bipiperidin]-1′-yl)-3-((4-ethylphenyl)sulfonyl)quinolin-6-yl)acetonitrile]",0,** (more than 50% but less than 100% of endothelial cells vesicularize in cell shape),,,
"CCc1ccc(S(=O)(=O)c2cnc3ccc(OC(F)(F)F)cc3c2-n2nnc3ccccc32)cc1 [compound 112, 4-(1H-benzo[d][1,2,3]triazol-1-yl)-3-((4-ethylphenyl)sulfonyl)-6-(trifluoromethoxy)quinoline]",** (more than 50% but less than 100% of endothelial cells vesicularize in cell shape),,,*** (100% of endothelial cells vesicularize in cell shape),
"CCCCOc1ccc(S(=O)(=O)c2cnc3ccc(SC)cc3c2N2CCCN(CCN3CCCC3)CC2)cc1 [compound 207, 3-((4-butoxyphenyl)sulfonyl)-6-(methylthio)-4-(4-(2-(pyrrolidin-1-yl)ethyl)-1,4-diazepan-1-yl)quinoline]",**** (100% of endothelial cells vesicularize in cell shape and look flattened in morphology (indicating disintegration of the cell body)),,,** (more than 50% but less than 100% of endothelial cells vesicularize in cell shape),
"CCN(CC)c1c(S(=O)(=O)c2ccc(OC)c(OC)c2)cnc2ccc(OC(F)(F)F)cc12 [compound 68, 3-((3,4-dimethoxyphenyl)sulfonyl)-N,N-diethyl-6-(trifluoromethoxy)quinolin-4-amine]",** (more than 50% but less than 100% of endothelial cells vesicularize in cell shape),*** (100% of endothelial cells vesicularize in cell shape),,,
"CCCCOc1ccc(S(=O)(=O)c2cnc3ccc(OC(F)(F)F)cc3c2N2CCC(N3CCCCC3)CC2)cc1 [compound 119, 4-([1,4′-bipiperidin]-1′-yl)-3-((4-butoxyphenyl)sulfonyl)-6-(trifluoromethoxy)quinoline]",,,,*** (100% of endothelial cells vesicularize in cell shape),0
"CCCCCCCOc1ccc(S(=O)(=O)c2cnc3ccc(SC)cc3c2N2CCCN(C)CC2)cc1 [compound 218, 3-((4-(heptyloxy)phenyl)sulfonyl)-4-(4-methyl-1,4-diazepan-1-yl)-6-(methylthio)quinoline]",*** (100% of endothelial cells vesicularize in cell shape),**** (100% of endothelial cells vesicularize in cell shape and look flattened in morphology (indicating disintegration of the cell body)),,,
"CCCCOc1ccc2ncc(S(=O)(=O)c3ccc(OC)c(OC)c3)c(N3CCC(N4CCCCC4)CC3)c2c1 [compound 116, 4-([1,4′-bipiperidin]-1′-yl)-6-butoxy-3-((3,4-dimethoxyphenyl)sulfonyl)quinoline]",,,,*** (100% of endothelial cells vesicularize in cell shape),* (50% or less of cells vesicularize in cell shape)
"CCCCOc1ccc(S(=O)(=O)c2cnc3ccc(C(=O)OCC)cc3c2N2CCC(N3CCCCC3)CC2)cc1 [compound 157, ethyl 4-([1,4′-bipiperidin]-1′-yl)-3-((4-butoxyphenyl)sulfonyl)quinoline-6-carboxylate]",**** (100% of endothelial cells vesicularize in cell shape and look flattened in morphology (indicating disintegration of the cell body)),*** (100% of endothelial cells vesicularize in cell shape),,,
"CCCCCCCOc1ccc(S(=O)(=O)c2cnc3ccc(SC)cc3c2N2CCC(N3CCCCC3)CC2)cc1 [compound 219, 4-([1,4′-bipiperidin]-1′-yl)-3-((4-(heptyloxy)phenyl)sulfonyl)-6-(methylthio)quinoline]",*** (100% of endothelial cells vesicularize in cell shape),**** (100% of endothelial cells vesicularize in cell shape and look flattened in morphology (indicating disintegration of the cell body)),,,
"COc1ccc(S(=O)(=O)c2cnc3ccc([N+](=O)[O-])cc3c2-n2cncn2)cc1 [compound 97, 3-((4-methoxyphenyl)sulfonyl)-6-nitro-4-(1H-1,2,4-triazol-1-yl)quinoline]",,,*** (100% of endothelial cells vesicularize in cell shape),** (more than 50% but less than 100% of endothelial cells vesicularize in cell shape),
"CCCCOc1ccc(S(=O)(=O)c2cnc3ccc([S+](C)[O-])cc3c2N2CCCN(CCN3CCCCC3)CC2)cc1 (centres unmarked) [compound 209, 3-((4-butoxyphenyl)sulfonyl)-6-(methylsulfinyl)-4-(4-(2-(piperidin-1-yl)ethyl)-1,4-diazepan-1-yl)quinoline]",*** (100% of endothelial cells vesicularize in cell shape),* (50% or less of cells vesicularize in cell shape),,,
"CCOC(=O)c1ccc2ncc(S(=O)(=O)c3ccc(CC)cc3)c(N3CCC(O)CC3)c2c1 [compound 62, ethyl 3-((4-ethylphenyl)sulfonyl)-4-(4-hydroxypiperidin-1-yl)quinoline-6-carboxylate]",** (more than 50% but less than 100% of endothelial cells vesicularize in cell shape),*** (100% of endothelial cells vesicularize in cell shape),,,
"CCCCOc1ccc(S(=O)(=O)c2cnc3ccc(C(=O)NCCO)cc3c2N2CCC(N3CCCCC3)CC2)cc1 [compound 202, 4-([1,4′-bipiperidin]-1′-yl)-3-((4-butoxyphenyl)sulfonyl)-N-(2-hydroxyethyl)quinoline-6-carboxamide]",0,** (more than 50% but less than 100% of endothelial cells vesicularize in cell shape),,,
"CCc1ccc(S(=O)(=O)c2cnc3ccc(OC(F)(F)F)cc3c2N2CCC(OCCN(CC)CC)CC2)cc1 [compound 101, N,N-diethyl-2-((1-(3-((4-ethylphenyl)sulfonyl)-6-(trifluoromethoxy)quinolin-4-yl)piperidin-4-yl)oxy)ethan-1-amine]",,,,*** (100% of endothelial cells vesicularize in cell shape),* (50% or less of cells vesicularize in cell shape)
